Data taken from publication PMC8802890, “Identification of U937^JAK3-M511I Acute Myeloid Leukemia Cells as a Sensitive Model to JAK3 Inhibitor” (Frontiers in Oncology, 2022).

Columns and labels:
U937 AML cells = experiment: CCK-8 anti-proliferation, U937; settings: Homo sapiens, U-937, 72 h, read-out: IC50 Cell line U937
Ba/F3 = experiment: CCK-8 anti-proliferation, parental Ba/F3; assay type: cell-based, Murine; settings: Mus musculus, BaF3; parental cells, with IL-3; CCK-8, 72 h; mean ± SD
Ba/F3-TEL-JAK1 = experiment: CCK-8 anti-proliferation, Ba/F3-TEL-JAK1; assay type: cell-based, Murine; settings: Mus musculus, CCK-8, 72 h, mean ± SD

C[C@@H]1CCN(C(=O)CC#N)C[C@@H]1N(C)c1ncnc2[nH]ccc12 [Tofacitinib]
IC50 (U937 AML cells): 180 ± 40 nM
IC50 (Ba/F3): 3370 ± 30 nM
IC50 (Ba/F3-TEL-JAK1): 760 ± 80 nM
